Consider one compound from patent US7585850B2 (Adenobio N.V., priority 2005, dated 2009).

This data set relates to hypoxic rats. The data set can be described thus: Effect of oral Adb011 on chronic pulmonary hypertension caused by hypoxia in rats. In kind it is in vivo, rat. As to the method:
Animals were divided in three groups: • Adb-011 chronic treatment (n=5): receiving by gavage Adb-011 (50 mg/kg in suspension with Arabic syrup, 20 mg/ml) twice a day (morning and evening) for 14 days. • Control (n=6): receiving by gavage vehicle (suspension of Arabic syrup 20 mg/kg). • Adb-011 acute treatment (n=6): receiving by gavage vehicle for 14 days and orally treated with a single dose of Adb-011 on the last day (day of surgery). Rats were placed in a chamber where air was circulated at a pressure of 380 Torr, which corresponds to an altitude of 5500 meters. The chamber was open twice a day for ˜30 minutes to treat animals and to replace food and water. On the day of surgery the animals were removed from the chamber and anesthetized with pentobarbital sodium (60 mg/kg ip). A polyethylene catheter (PE-50) was placed in the aortic arch via the left carotid artery. An introducer was advanced in the right ventricle via the right jugular vein. Adequate placement of both catheters was established by the pressure waveform. Both catheters were connected to a pressure transducer (Biopac MP30, BIOPAC Systems, Inc.). The time-lag between last dose of Adb-011 (in group 1) and blood pressure measurement was 14 hours.

On to `CC(=O)Nc1ccc(C(=O)O)cc1.CC(=O)Nc1ccc(C(=O)O)cc1.CC(=O)Nc1ccc(C(=O)O)cc1.CC(O)CN(C)C.CC(O)CN(C)C.CC(O)CN(C)C.Nc1ncnc2c1ncn2[C@@H]1O[C@H](CO)[C@@H](O)[C@H]1O` [Adb011], for which the “BW (body weight)” value is listed as 294 ± 5 g (HxA: chronic treatment 14 days) and 303 ± 3 g (HxC + A 15 min: single oral dose on day of surgery).
